In patent US20060233788A1:
Results are given in words; binding and its absence hold for the method and conditions named. Some results given as binding are weak or reduced against the parent protein; the word gives no strength.

Target: human ghrelin peptide spanning amino acids 4-20 (human)
Assay: FLIPR assay, peptide (100 nM) competes with hGhrelin for the Fab (5 nM)

B1: Fab 4641 (Fab, V domains shown)
VH: QVQLQQSRPELVRPGASVKMSCRASAYTFTTYWMHWVRQRPGQGLEWIGMIDPSNSDTWLNQKFKDKATLNVDRSSNTAYMQLTSLTSEDSAVYYCARTGFDYWGQGTTLTVSS
VL: DVVMTQTPLSLPVSLGDQASISCRSSQSLVHSDGNTYLHWYLQKPGQSPKLLIYKVSNRFSGVPDRFSGSGSGTDFTLKISRVEAEDLGVYFCSQSTYVSYTFGGGTKLEIKR
- binding: binds
